Measurements taken from PubChem BioAssay AID2685 (National Center for Advancing Translational Sciences (NCATS), 2010).
This is one part of the list. These are further read-outs of the screen, such as a control signal, another cell line or another target. No call is given for them. The list favours compounds with an active or inconclusive main result. Words in brackets tell the shape of the fitted curve; partial curves, single points and poor fits give uncertain potencies.

Test: qHTS Assay for Lipid Storage Modulators in Drosophila S3 Cells;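 for cell number change: cells counted by Cell Tracker Red CMTPX staining in the red channel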
Settings: BODIPY lipid droplet fluorescence, 18-24 h; for cell number change: measured here: cell count max response, cells fed with added oleic acid
Summary of the method: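 Drosophila S3 cells got compounds at several concentrations plus oleic acid (400 uM solution). Laser-scanning cytometry with 488 nm excitation read lipid droplets at 500-530 nm and cells at 575-640 nm. Percent activity was relative to 20 uM Triacsin C.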

[1] = measured here: lipid fluorescence (Fed channel) AC50, cells fed with added oleic acid
[2] = measured here: cell number channel AC50, cells fed with added oleic acid

SMILES	cell number change [%]	AC50 [1]	AC50 [2]
COc1ccc(N(C)S(=O)(=O)c2cccc(C(=O)Nc3cccc(C(=O)NC4CC4)c3)c2)cc1	-10.3	13 µM [falling, partial curve, poor fit]	–
CCCCN(C)C(=O)c1cc2cc3cc(OC)ccc3nc2o1	-18.1	32.6 µM [falling, single point]	–
COCCCNC(=O)c1cccc(S(=O)(=O)N2CC3(C)CC2CC(C)(C)C3)c1 (centres undefined)	25	–	4.11 µM [rising, single point]
O=S1(=O)CCO[C@H]2Cc3ccccc3[C@H]2N1Cc1cccc(F)c1	14.7	29.1 µM [rising, single point]	–
Cc1cc(C(=O)NC2CCN(Cc3ccccc3)CC2)n[nH]1	-7.65	–	–
O=C(Nc1cccs1)Nc1c(F)c(F)c(F)c(F)c1F	-29.1	6.51 µM [rising, partial curve, poor fit]	0.116 µM [rising, full curve, poor fit]
COc1ccc(-c2nc(CS(=O)CC(=O)NCCc3ccc(OC)c(OC)c3)c(C)o2)cc1 (centres undefined)	-28.4	29.1 µM [falling, single point]	–
O=S(=O)(Nc1ccc(-c2ccc3nncn3n2)cc1)c1cc(F)ccc1F	13.3	–	–
O=C(O)CCC(=O)Nc1ccccc1Oc1ccccc1	-48.2	–	–
O=C(O)Cc1coc(-c2ccc(F)cc2)n1	–	–	2.59 µM [falling, partial curve]
CCCc1cc(-c2[nH]ncc2-c2ccc3c(c2)OCCCO3)c(O)cc1OC	-68.8	20.6 µM [falling, single point]	18.4 µM [falling, single point]
COc1ccc(OC)c(C(=O)Cn2nnc3ccccc3c2=O)c1	-45.1	29.1 µM [falling, single point]	2.06 µM [falling, partial curve]
COc1ccc(N(CC(=O)NCCc2ccc(OC)c(OC)c2)S(=O)(=O)c2c(C)noc2C)cc1	-0.59	0.58 µM [rising, single point]	–
O=C(COc1cccc(Cl)c1)Nc1cc(S(=O)(=O)N2CCOCC2)ccc1N1CCOCC1	-36.2	14.6 µM [falling, partial curve]	16.4 µM [falling, partial curve]
Cc1oc(C(=O)O)cc1COc1ccccc1Cl	1.06	29.1 µM [falling, partial curve, poor fit]	–
CCOC(=O)c1[nH]c2cc(OC)c(OC)cc2c1N	90	4.11 µM [rising, partial curve]	29.1 µM [rising, single point]
COc1ccc(N(C(=O)c2cccnc2)S(=O)(=O)c2ccc(OC)c(OC)c2)cc1	2.88	29.1 µM [rising, single point]	–
COc1ccccc1NS(=O)(=O)c1ccc2oc(N)nc2c1	6.67	0.651 µM [rising, partial curve, poor fit]	–
O=C(NNc1ccc([N+](=O)[O-])cc1)Nc1ccccc1	2.59	–	–
O=c1oc2cc(Br)ccc2n1Cc1ccccc1	3.41	–	–

SMILES	cell number change [%]	AC50 [1]	AC50 [2]
O=S(=O)(N/N=C1/CC(c2ccccc2)Oc2ccccc21)c1ccc(Br)cc1 (centres undefined)	-15.2	–	–
CCOc1ccccc1Oc1coc2cc(OC(=O)c3ccco3)ccc2c1=O	-2.23	0.13 µM [falling, full curve, poor fit]	–
CC(=O)Nc1ccc(S(=O)(=O)N2CCN(C(=O)c3ncoc3-c3ccc(C)cc3)CC2)cc1	-3.95	5.62 µM [rising, single point]	–
Cc1nc(C)c(-c2ccc(SCc3cccc(F)c3)nn2)s1	-32.7	–	9.2 µM [falling, single point]
N#Cc1ccc(C(=O)OCC(=O)Nc2ccc(N3CCOCC3)cc2)cc1	-53.7	0.82 µM [falling, full curve]	–
Fc1ccc2c(c1)C(c1cccnc1)=NNC(c1cccs1)=N2	22.2	1.16 µM [rising, partial curve, poor fit]	–
Cc1cccc(Nc2c([N+](=O)[O-])ccc3nonc23)c1C	9.72	–	–
CCc1cc(=O)oc2c(C)c(OC(C)C(=O)NCCCn3ccnc3)ccc12 (centres undefined)	-0.895	23.1 µM [falling, single point]	–
O=C(COc1cc(F)ccc1[N+](=O)[O-])Nc1cccc(Br)c1	60.9	–	23.1 µM [rising, single point]
COc1cc(OC)c(C(=O)NNC(=O)CN(C)S(=O)(=O)c2ccc(Cl)cc2)cc1OC	–	2.91 µM [rising, partial curve]	–
O=C(CCCNS(=O)(=O)c1ccc(Cl)c(Cl)c1)NCCc1ccccn1	-48.4	25.9 µM [falling, partial curve, poor fit]	4.61 µM [falling, single point]
Cc1ccc(S(=O)(=O)N2CCN(S(=O)(=O)N3CCCCC3)CC2)cc1C	25.7	–	–
O=C(COc1cccc2c1CCNC2=O)Nc1cccc(C(F)(F)F)c1	–	0.411 µM [rising, full curve]	–
COc1cccc(S(=O)(=O)NCc2ccc(C(=O)N3CCN(C)CC3)cc2)c1	19.1	20.6 µM [falling, single point]	–
COCc1[nH][nH]c(=O)c1C=Nc1ccc(C(F)(F)F)cc1	6.95	0.82 µM [rising, full curve]	–
Cc1c(OCC(=O)NCCCN2CCOCC2)ccc2c(-c3ccccc3)cc(=O)oc12	2.69	0.231 µM [rising, full curve, poor fit]	–
O=C(c1ccccc1F)N1CCN(Cc2ccccc2F)CC1	32.8	–	0.00517 µM [rising, full curve, poor fit]
COC(=O)COc1cccc2c(=O)n(CC(=O)NCCc3ccccc3)ccc12	13.2	4.11 µM [rising, partial curve]	–
O=c1[nH]c(N/N=C/c2ccccc2Br)nnc1-c1ccccc1	71.9	8.2 µM [falling, partial curve]	18.4 µM [rising, partial curve]

Single values from the entries so far.
AC50 [1], COc1cc(OC)c(C(=O)NNC(=O)CN(C)S(=O)(=O)c2ccc(Cl)cc2)cc1OC reads 2.91 µM [rising, partial curve]
cell number change [%], Cc1ccc(S(=O)(=O)N2CCN(S(=O)(=O)N3CCCCC3)CC2)cc1C reads 25.7
